Laboratory results published in patent US20160137740A1.
No constants are given. Whether binding was seen depends on the method and setting. Binding can be weak; no strength is given.

Assays:
[1] = target: KO_CRD1 (human OX40 aa 29 to 65 replaced with the mouse counterparts) (human; mouse); test: flow cytometry on transfected 293F cells
[2] = target: KO_CRD2 (human OX40 aa 66 to 107 replaced with the mouse counterparts) (human; mouse); test: flow cytometry on transfected 293F cells

binding [1]: binds
binding [2]: binds
B1: 9B12 (antibody, mouse IgG1, V domains shown)
VH: EVQLQESGPSLVKPSQTLSLTCSVTGDSFTSGYWNWIRKFPGNRLEYMGYISYNGITYHNPSLKSRISITRDTSKNHYYLQLNSVTTEDTATYFCARYRYDYDGGHAMDYWGQGTLVTVSS
VL: DIQMTQTTSSLSASLGDRVTISCRASQDISNYLNWYQQKPDGTVKLLIYYTSKLHSGVPSRFSGSGSRTDYSLTITDLDQEDIATYFCQQGSALPWTFGQGTKVEIKR
